# From the supplement of paper PMC12024529
# Structures can show the parent of a compound that is named as a salt. This is one part of the list. Part of the spread comes from offsets between plates or batches.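 The cells are HEK293 lines stably expressing B-domain-deleted factor VIII fused to Gaussia luciferase, either wild type or a misfolding-prone missense mutant. Each score is mean luminescence from triplicate wells minus the DMSO mean, divided by the DMSO standard deviation; a score of 2 or more counts as a hit, and low scores may reflect lower secretion or poorer cell viability.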
# Key:
# HEK293 WT BDD-FVIII-Gluc = experiment: secreted FVIII-Gluc luciferase Z-score vs DMSO control; higher = more FVIII-Gluc secretion; conditions: 5 µM; 24 h
# [1] = system: HEK293 p.N1941S BDD-FVIII-Gluc; experiment: as above; conditions: 5 µM; 24 h
Compound,secreted FVIII-Gluc luciferase Z-score (HEK293 WT BDD-FVIII-Gluc),secreted FVIII-Gluc luciferase Z-score [1]
CCN(CC)CCNC(C(=O)OCCC(C)C)c1ccccc1 (stereo not given) [Camylofin Chlorhydrate],inactive: 0.0508,inactive: 1.02
CC1(C)S[C@@H]2[C@H](NC(=O)[C@H](N)c3ccc(O)cc3)C(=O)N2[C@H]1C(=O)O [Amoxicillin sodium (Amox)],inactive: 1.22,inactive: 0.37
CC(C(=O)O)c1cccc(C(=O)c2ccccc2)c1 (stereo not given) [Ketoprofen (Actron)],inactive: -1.65,inactive: -0.332
C1N2CN3CN1CN(C2)C3 [Methenamine (Mandelamine)],inactive: -0.652,inactive: -0.268
Nc1cccc2c1CN(C1CCC(=O)NC1=O)C2=O (stereo not given) [Lenalidomide],inactive: 1.78,inactive: -0.0959
COC(=O)/C=C/C(=O)OC [Dimethyl Fumarate],inactive: -8.82,inactive: -2.52
CO[C@H]1C(=O)[C@]2(C)[C@@H](OC)C[C@H]3OC[C@@]3(OC(C)=O)[C@H]2[C@H](OC(=O)c2ccccc2)[C@]2(O)C[C@H](OC(=O)[C@H](O)[C@@H](NC(=O)OC(C)(C)C)c3ccccc3)C(C)=C1C2(C)C [Cabazitaxel (Jevtana)],inactive: -10.9,inactive: -2.92
CC1(C)S[C@@H]2[C@H](NC(=O)Cc3ccccc3)C(=O)N2[C@H]1C(=O)O [Penicillin G Sodium],inactive: 0.861,inactive: 1.09
CC(C)NCC(O)COc1ccc(CCOCC2CC2)cc1 (stereo not given) [Betaxolol (Betoptic)],inactive: -0.31,inactive: -1.11
COC(c1ccccc1)(c1ccccc1)[C@H](Oc1nc(C)cc(C)n1)C(=O)O [Ambrisentan],inactive: 0.507,inactive: -0.871
CC[C@@]1(O)C(=O)OCc2c1cc1n(c2=O)Cc2cc3c(CN(C)C)c(O)ccc3nc2-1 [Topotecan HCl],inactive: -3.07,inactive: -13
OCCOCCN1CCN(C2=Nc3ccccc3Sc3ccccc32)CC1 [Quetiapine fumarate (Seroquel)],inactive: -1.48,inactive: 0.0379
Nc1nccs1 [Aminothiazole],inactive: -0.369,inactive: 1.02
c1ccc(CN(CC2=NCCN2)c2ccccc2)cc1 [Antazoline HCl],inactive: 0.167,inactive: 0.457
OCCOc1ccc(/C(=C(/CCCl)c2ccccc2)c2ccccc2)cc1 [Ospemifene],inactive: -1.94,inactive: -0.467
CCCc1cc(C(N)=S)ccn1 [Protionamide (Prothionamide)],inactive: -1.66,inactive: 0.0069
c1ccc2[nH]c(-c3cscn3)nc2c1 [Thiabendazole],inactive: -2.27,inactive: -0.149
CC/C(=C(/CC)c1ccc(O)cc1)c1ccc(O)cc1 [Diethylstilbestrol (Stilbestrol)],inactive: -2.6,inactive: -1.58

Compound,secreted FVIII-Gluc luciferase Z-score (HEK293 WT BDD-FVIII-Gluc),secreted FVIII-Gluc luciferase Z-score [1]
C[C@]12CCC3=C4CCC(=O)C=C4CC[C@H]3[C@@H]1CC[C@@]2(O)CC#N [Dienogest],inactive: -0.623,inactive: -0.286
CCOC(=O)C1=C(C)NC(C)=C(C(=O)OC)C1c1cccc(Cl)c1Cl (stereo not given) [Felodipine (Plendil)],inactive: -3.64,inactive: -1.36
C=C1/C(=C\C=C2/CCC[C@]3(C)[C@@H]([C@H](C)/C=C/[C@H](C)C(C)C)CC[C@@H]23)C[C@@H](O)C[C@@H]1O [Doxercalciferol (Hectorol)],inactive: -5.29,inactive: -0.293
COc1cc(C(=O)NC2CCCNC2)cc(OC)c1OC (stereo not given) [Troxipide],inactive: -1.14,inactive: 0.628
CC1(C)S[C@@H]2[C@H](NC(=O)[C@H](NC(=O)N3CCN(S(C)(=O)=O)C3=O)c3ccccc3)C(=O)N2[C@H]1C(=O)O [Mezlocillin Sodium],inactive: -0.655,inactive: 0.981
Cc1cccc(C)c1OCC(=O)N[C@@H](Cc1ccccc1)[C@@H](O)C[C@H](Cc1ccccc1)NC(=O)[C@H](C(C)C)N1CCCNC1=O [Lopinavir (ABT-378)],inactive: -5.16,inactive: -1.79
CCC1(c2ccccc2)C(=O)NCNC1=O [Primidone (Mysoline)],inactive: -4.14,inactive: -2.03
COC1=C(OC)C(=O)C(CCCCCCCCCCO)=C(C)C1=O [Idebenone],inactive: -2.55,inactive: -0.333
CN1CCN(C2=Nc3ccccc3Oc3ccc(Cl)cc32)CC1 [Loxapine Succinate],active: 12.9,active: 2.46
"CCCCCCCCCCC[C@@H](C[C@@H]1OC(=O)[C@H]1CCCCCC)OC(=O)[C@H](CC(C)C)NC=O [Orlistat (Alli, Xenical)]",inactive: -2.93,inactive: -0.05
Cc1ncc(CO)c(CO)c1O [Pyridoxine hydrochloride],inactive: 0.0177,inactive: -0.484
Cc1nccn1CC1CCc2c(c3ccccc3n2C)C1=O (stereo not given) [Ondansetron hydrochloride (Zofran)],inactive: -12.7,inactive: 0.539
CN(CCOc1ccc(CC2SC(=O)NC2=O)cc1)c1ccccn1 (stereo not given) [Rosiglitazone (Avandia)],inactive: 0.525,inactive: -0.184
COc1ccc(-c2nc3cc(C4=NNC(=O)CC4C)ccc3[nH]2)cc1 (stereo not given) [Pimobendan (Vetmedin)],inactive: 0.0806,inactive: -4
Cc1cc(C#N)cc(C)c1Oc1nc(Nc2ccc(C#N)cc2)nc(N)c1Br [Etravirine (TMC125)],inactive: -1.68,inactive: -1.38
CC#C[C@]1(O)CC[C@H]2[C@@H]3CCC4=CC(=O)CCC4=C3[C@@H](c3ccc(N(C)C)cc3)C[C@@]21C [Mifepristone (Mifeprex)],inactive: -6.26,inactive: -0.884
Clc1ccc(COC(Cn2ccnc2)c2ccc(Cl)cc2Cl)c(Cl)c1 (stereo not given) [Miconazole nitrate],inactive: -3.09,inactive: -3.7

# As a short view, two of the compounds above.
Compound,secreted FVIII-Gluc luciferase Z-score (HEK293 WT BDD-FVIII-Gluc),secreted FVIII-Gluc luciferase Z-score [1]
CCN(CC)CCNC(C(=O)OCCC(C)C)c1ccccc1 (stereo not given) [Camylofin Chlorhydrate],inactive: 0.0508,inactive: 1.02
CC1(C)S[C@@H]2[C@H](NC(=O)[C@H](N)c3ccc(O)cc3)C(=O)N2[C@H]1C(=O)O [Amoxicillin sodium (Amox)],inactive: 1.22,inactive: 0.37
